Assay results taken from doi:10.1101/339499.
Where two headings read alike, the source gives them in different places. No constants are given. Whether binding was seen depends on the method and setting. In cells and extracts the contact can be indirect. Here binding means that the protein was enriched with, or labelled near, the bait; the list need not be complete. For some of these results: No binding means not detected with the bait. Sequences can lack the tags named with a protein.

T1: Rpc128-Flag (pol III subunit Rpc128, FLAG-tagged) (yeast) (UniProt P22276)
T1 sequence: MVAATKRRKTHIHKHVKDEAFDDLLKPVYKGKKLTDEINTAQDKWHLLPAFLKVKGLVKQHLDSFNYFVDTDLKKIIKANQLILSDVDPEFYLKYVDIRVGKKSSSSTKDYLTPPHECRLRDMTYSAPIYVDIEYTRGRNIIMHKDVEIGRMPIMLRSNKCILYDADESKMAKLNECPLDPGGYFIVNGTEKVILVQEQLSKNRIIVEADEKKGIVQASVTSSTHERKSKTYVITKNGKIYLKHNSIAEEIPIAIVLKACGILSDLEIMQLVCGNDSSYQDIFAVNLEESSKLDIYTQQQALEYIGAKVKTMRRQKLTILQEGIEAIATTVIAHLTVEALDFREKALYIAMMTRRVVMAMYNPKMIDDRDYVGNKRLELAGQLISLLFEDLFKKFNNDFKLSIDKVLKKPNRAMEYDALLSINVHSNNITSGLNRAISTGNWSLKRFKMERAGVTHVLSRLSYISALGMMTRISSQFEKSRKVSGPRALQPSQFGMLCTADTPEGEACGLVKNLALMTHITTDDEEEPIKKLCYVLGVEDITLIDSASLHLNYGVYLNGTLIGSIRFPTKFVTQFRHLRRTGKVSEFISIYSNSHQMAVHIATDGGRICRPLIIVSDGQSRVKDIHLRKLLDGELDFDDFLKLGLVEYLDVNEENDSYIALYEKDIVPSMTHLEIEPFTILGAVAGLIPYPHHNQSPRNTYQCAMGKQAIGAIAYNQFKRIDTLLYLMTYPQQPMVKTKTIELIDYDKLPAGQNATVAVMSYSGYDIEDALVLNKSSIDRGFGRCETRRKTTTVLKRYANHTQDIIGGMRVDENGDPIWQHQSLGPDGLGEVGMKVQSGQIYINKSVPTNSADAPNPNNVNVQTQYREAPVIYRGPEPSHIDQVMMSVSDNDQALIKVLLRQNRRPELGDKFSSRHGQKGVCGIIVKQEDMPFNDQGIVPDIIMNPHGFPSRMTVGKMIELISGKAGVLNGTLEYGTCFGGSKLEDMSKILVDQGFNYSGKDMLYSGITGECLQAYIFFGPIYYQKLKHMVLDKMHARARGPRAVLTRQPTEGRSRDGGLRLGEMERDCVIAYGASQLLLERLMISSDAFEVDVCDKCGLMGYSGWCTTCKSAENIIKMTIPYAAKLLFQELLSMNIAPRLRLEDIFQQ

T2: Tfc6-FLAG (TFIIIC subunit Tfc6, FLAG-tagged) (yeast) (UniProt Q06339)
T2 sequence: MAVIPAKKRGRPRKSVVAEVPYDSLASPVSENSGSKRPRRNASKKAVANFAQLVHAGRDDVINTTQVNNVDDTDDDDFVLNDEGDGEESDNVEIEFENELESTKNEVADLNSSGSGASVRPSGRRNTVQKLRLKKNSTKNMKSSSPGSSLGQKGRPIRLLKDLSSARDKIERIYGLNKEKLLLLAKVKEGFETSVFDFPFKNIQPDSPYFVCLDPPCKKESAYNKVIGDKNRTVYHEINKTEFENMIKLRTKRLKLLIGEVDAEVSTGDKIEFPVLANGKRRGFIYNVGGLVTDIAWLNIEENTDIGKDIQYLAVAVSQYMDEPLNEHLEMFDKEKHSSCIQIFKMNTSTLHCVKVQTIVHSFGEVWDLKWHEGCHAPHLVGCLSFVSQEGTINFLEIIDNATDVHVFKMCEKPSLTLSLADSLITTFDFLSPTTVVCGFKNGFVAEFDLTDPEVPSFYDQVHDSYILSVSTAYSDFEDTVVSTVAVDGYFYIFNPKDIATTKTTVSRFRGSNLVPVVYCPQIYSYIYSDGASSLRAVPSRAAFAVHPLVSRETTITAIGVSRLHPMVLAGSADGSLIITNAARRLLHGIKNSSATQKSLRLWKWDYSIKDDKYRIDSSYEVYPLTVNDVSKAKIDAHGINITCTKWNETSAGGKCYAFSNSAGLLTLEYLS

T3: Brf1-FLAG (TFIIIB subunit Brf1, FLAG-tagged) (yeast) (UniProt P29056)
T3 sequence: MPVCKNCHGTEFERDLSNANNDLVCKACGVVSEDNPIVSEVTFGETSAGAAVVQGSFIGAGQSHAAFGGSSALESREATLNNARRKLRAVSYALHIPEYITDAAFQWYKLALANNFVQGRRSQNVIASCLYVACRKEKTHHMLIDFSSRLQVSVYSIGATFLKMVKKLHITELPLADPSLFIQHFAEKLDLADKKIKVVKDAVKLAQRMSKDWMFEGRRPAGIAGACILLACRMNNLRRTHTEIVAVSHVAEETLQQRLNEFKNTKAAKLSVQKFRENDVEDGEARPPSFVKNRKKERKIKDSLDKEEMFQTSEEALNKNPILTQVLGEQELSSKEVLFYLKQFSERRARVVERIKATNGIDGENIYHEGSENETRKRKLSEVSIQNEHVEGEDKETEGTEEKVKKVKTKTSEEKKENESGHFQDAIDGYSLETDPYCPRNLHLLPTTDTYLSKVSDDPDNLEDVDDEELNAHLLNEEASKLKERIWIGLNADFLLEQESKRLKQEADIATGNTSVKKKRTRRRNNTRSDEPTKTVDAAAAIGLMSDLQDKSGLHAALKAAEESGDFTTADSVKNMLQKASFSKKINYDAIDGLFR


How the values were obtained:
Assay in all cases: affinity purification with mass spectrometry
[1] = molecular target: T1, Rpc128-Flag (pol III subunit Rpc128, FLAG-tagged) (yeast)
[2] = molecular target: T2, Tfc6-FLAG (TFIIIC subunit Tfc6, FLAG-tagged) (yeast)
[3] = molecular target: T1, Rpc128-Flag (pol III subunit Rpc128, FLAG-tagged) (yeast); remark: listed apart in the source
[4] = molecular target: T3, Brf1-FLAG (TFIIIB subunit Brf1, FLAG-tagged) (yeast)
[5] = molecular target: T2, Tfc6-FLAG (TFIIIC subunit Tfc6, FLAG-tagged) (yeast); remark: listed apart in the source
[6] = molecular target: T3, Brf1-FLAG (TFIIIB subunit Brf1, FLAG-tagged) (yeast); remark: listed apart in the source

Molecule | binding [1] | binding [2] | binding [3] | binding [4] | binding [5] | binding [6]
Rtf1 (subunit of the Paf1 complex) (from UniProt P53064 1-558) | binds | binds | binds | binds | – | –
Leo1 (subunit of the Paf1 complex) (protein, UniProt P38439 1-464) MSSESPQDQPQKEQISNNVGVTTNSTSNEETSRSQDDNVKEVNGNDDTKEEEQEEDAELDDLFGDDNDDDDDDDVKKSETEKSDSDSDEDDEGENINHRSRHRESLGLDDDEAEEQAMYTRKFYGEDANNFSDQDETTHTFKEENVELVRHIIPSKANVNETASHNEIFYARIPNFLTIDPIPFDPPSFEAKVNERASNSASREDQLDDRLIDENTVRWRYSRDKDQHVFKESNTQIVQWSDGTYSLKVGEECTDILVNDTSNTFLTVSHDQQELIQCYEGGEIKKTLMFIPTSTNSKIHQKLSKAVIRRNQRQSKGPGTYIVSMDPEVEKKELERKQSQILRDRRRRQLKEKEKQESPDAAFETGFRKQNSPTTYGASRRNEYEEDDFLVDDDEEEEAAFDDEEDDNEEEEEEEDADEENASRLRNLKREGAAMYREEEEEEKDRSETKRRRVAVIEDDEDED | binds | – | – | – | binds | binds
Ctr9 (subunit of the Paf1 complex) (protein, UniProt P89105 1-1077) MTNAMKVEGYPSMEWPTSLDIPLKASEELVGIDLETDLPDDPTDLKTLLVEENSEKEHWLTIALAYCNHGKTNEGIKLIEMALDVFQNSERASLHTFLTWAHLNLAKGQSLSVETKEHELTQAELNLKDAIGFDPTWIGNMLATVELYYQRGHYDKALETSDLFVKSIHAEDHRSGRQSKPNCLFLLLRAKLLYQKKNYMASLKIFQELLVINPVLQPDPRIGIGLCFWQLKDSKMAIKSWQRALQLNPKNTSASILVLLGEFRESFTNSTNDKTFKEAFTKALSDLNNIFSENQHNPVLLTLLQTYYYFKGDYQTVLDIYHHRILKMSPMIAKIVLSESSFWCGRAHYALGDYRKSFIMFQESLKKNEDNLLAKLGLGQTQIKNNLLEESIITFENLYKTNESLQELNYILGMLYAGKAFDAKTAKNTSAKEQSNLNEKALKYLERYLKLTLATKNQLVISRAYLVISQLYELQNQYKTSLDYLSKALEEMEFIKKEIPLEVLNNLACYHFINGDFIKADDLFKQAKAKVSDKDESVNITLEYNIARTNEKNDCEKSESIYSQVTSLHPAYIAARIRNLYLKFAQSKIEDSDMSTEMNKLLDLNKSDLEIRSFYGWYLKNSKERKNNEKSTTHNKETLVKYNSHDAYALISLANLYVTIARDGKKSRNPKEQEKSKHSYLKAIQLYQKVLQVDPFNIFAAQGLAIIFAESKRLGPALEILRKVRDSLDNEDVQLNLAHCYLEMREYGKAIENYELVLKKFDNEKTRPHILNLLGRAWYARAIKERSVNFYQKALENAKTALDLFVKESSKSKFIHSVKFNIALLHFQIAETLRRSNPKFRTVQQIKDSLEGLKEGLELFRELNDLKEFNMIPKEELEQRIQLGETTMKSALERSLNEQEEFEKEQSAKIDEARKILEENELKEQGWMKQEEEARRLKLEKQAEEYRKLQDEAQKLIQEREAMAISEHNVKDDSDLSDKDNEYDEEKPRQKRKRSTKTKNSGESKRRKAAKKTLSDSDEDDDDVVKKPSHNKGKKSQLSNEFIEDSDEEEAQMSGSEQNKNDDNDENNDNDDNDGLF | binds | – | – | – | binds | binds
Cdc73 (subunit of the Paf1 complex) (protein, UniProt Q06697 1-393) MANSLDRLREHLKNGDKLVLKNNEGQSTDDITKATMVETLSSDGSTQDSFPLNEETEIEIDGSLVQLRIIVHCWMNKDSSAADYLADCQNKQLTNVSFLQRTDLINWLSGNTESSQYLKAPGQKGETSDKVDIENKTLAGELSTVKSTTSASLENDSEVSDPVVVETMKHERILVDHNSALRGAKPINFGYLIKDAELKLVQSIKGSLRGSKLPPGHKGAHGRISKTNGSSGGPRKDPIILIPSAASSILTVANIKQFLLESKYVNPRNLPSVPNGLVNIEKNFERISRPIRFIIVDNTRMFTKPEYWDRVVAIFTTGHTWQFNNYQWNSPQELFQRCKGYYFHFAGDSVPQHVQQWNVEKVELDKNKRFKDVEVVRYFWHSLEKELISRGYR | binds | – | – | – | binds | binds
Bud27 (protein, UniProt P43573 1-796) MDLLAASVESTLKNLQDKRNFLSEQREHYIDIRSRLVRFINDNDDGEEEGEGQGMVFGDIIISTSKIYLSLGYEYYVEKTKEEAITFVDDKLKLMEDAIEQFNLKIEEAKKTLDNLNHMEDGNGIEEDEANNDEDFLPSMEIREELDDEGNVISSSVTPTTKQPSQSNSKKEQTPAVGPKEKGLAKEKKSKSFEENLKGKLLKRNDEVKKKVQPSKVDTENVYTFADLVQQMDQQDELEDGYIETDEINYDYDAFENSNFKVNDNYEEDDEDEDEEEYLNHSIIPGFEAQSSFLQQIQRLRAQKQSQDHEREEGDVNKSLKPILKKSSFAENSDKKQKKKQVGFASSLEIHEVENLKEENKRQMQSFAVPMYETQESTGIANKMTSDEFDGDLFAKMLGVQEADEVHEKYKEELINQERLEGEASRSNRRTRVSRFRKDRASKKENTLSTFKQETTRSVENEVVEKEPVVGDIIEKEPVVGDVIEKEPVVGDVIEKEPAVTDIVEREPAVNDIVERKPVVGDIIEKEPTINDIVEKEPEINSKSEFETPFKKKKLKSLQKPRSSKSMKKKFDPKILENISDDDYDDDDDGNKKLLSNKSKNNTDEQDKFPSKIQEVSRSMAKTGATVGSEPVRITNVDYHALGGNLDDMVKAYSLGLYDDDLEEDPGTIVEKLEDFKEYNKQVELLRDEIRDFQLENKPVTMEEEENDGNVMNDIIEHEFPESYTNDEDEVALHPGRLQEEVAIEYRRLKEATASKWQSSSPAAHTEGELEPIDKFGNPVKTSRFRSQRLHMDSKP | binds | – | – | – | no binding | no binding
